Reference: paper PMC6797804, “Histone H3K23-specific acetylation by MORF is coupled to H3K14 acylation” (Nature Communications, 2019)
No constants are given. Whether binding was seen depends on the method and setting. In cells and extracts the contact can be indirect. Here binding means that the protein was enriched with, or labelled near, the bait; the list need not be complete.

The chains behind the UniProt entries cited, without tags or fusion partners.
UniProt Q8WYB5: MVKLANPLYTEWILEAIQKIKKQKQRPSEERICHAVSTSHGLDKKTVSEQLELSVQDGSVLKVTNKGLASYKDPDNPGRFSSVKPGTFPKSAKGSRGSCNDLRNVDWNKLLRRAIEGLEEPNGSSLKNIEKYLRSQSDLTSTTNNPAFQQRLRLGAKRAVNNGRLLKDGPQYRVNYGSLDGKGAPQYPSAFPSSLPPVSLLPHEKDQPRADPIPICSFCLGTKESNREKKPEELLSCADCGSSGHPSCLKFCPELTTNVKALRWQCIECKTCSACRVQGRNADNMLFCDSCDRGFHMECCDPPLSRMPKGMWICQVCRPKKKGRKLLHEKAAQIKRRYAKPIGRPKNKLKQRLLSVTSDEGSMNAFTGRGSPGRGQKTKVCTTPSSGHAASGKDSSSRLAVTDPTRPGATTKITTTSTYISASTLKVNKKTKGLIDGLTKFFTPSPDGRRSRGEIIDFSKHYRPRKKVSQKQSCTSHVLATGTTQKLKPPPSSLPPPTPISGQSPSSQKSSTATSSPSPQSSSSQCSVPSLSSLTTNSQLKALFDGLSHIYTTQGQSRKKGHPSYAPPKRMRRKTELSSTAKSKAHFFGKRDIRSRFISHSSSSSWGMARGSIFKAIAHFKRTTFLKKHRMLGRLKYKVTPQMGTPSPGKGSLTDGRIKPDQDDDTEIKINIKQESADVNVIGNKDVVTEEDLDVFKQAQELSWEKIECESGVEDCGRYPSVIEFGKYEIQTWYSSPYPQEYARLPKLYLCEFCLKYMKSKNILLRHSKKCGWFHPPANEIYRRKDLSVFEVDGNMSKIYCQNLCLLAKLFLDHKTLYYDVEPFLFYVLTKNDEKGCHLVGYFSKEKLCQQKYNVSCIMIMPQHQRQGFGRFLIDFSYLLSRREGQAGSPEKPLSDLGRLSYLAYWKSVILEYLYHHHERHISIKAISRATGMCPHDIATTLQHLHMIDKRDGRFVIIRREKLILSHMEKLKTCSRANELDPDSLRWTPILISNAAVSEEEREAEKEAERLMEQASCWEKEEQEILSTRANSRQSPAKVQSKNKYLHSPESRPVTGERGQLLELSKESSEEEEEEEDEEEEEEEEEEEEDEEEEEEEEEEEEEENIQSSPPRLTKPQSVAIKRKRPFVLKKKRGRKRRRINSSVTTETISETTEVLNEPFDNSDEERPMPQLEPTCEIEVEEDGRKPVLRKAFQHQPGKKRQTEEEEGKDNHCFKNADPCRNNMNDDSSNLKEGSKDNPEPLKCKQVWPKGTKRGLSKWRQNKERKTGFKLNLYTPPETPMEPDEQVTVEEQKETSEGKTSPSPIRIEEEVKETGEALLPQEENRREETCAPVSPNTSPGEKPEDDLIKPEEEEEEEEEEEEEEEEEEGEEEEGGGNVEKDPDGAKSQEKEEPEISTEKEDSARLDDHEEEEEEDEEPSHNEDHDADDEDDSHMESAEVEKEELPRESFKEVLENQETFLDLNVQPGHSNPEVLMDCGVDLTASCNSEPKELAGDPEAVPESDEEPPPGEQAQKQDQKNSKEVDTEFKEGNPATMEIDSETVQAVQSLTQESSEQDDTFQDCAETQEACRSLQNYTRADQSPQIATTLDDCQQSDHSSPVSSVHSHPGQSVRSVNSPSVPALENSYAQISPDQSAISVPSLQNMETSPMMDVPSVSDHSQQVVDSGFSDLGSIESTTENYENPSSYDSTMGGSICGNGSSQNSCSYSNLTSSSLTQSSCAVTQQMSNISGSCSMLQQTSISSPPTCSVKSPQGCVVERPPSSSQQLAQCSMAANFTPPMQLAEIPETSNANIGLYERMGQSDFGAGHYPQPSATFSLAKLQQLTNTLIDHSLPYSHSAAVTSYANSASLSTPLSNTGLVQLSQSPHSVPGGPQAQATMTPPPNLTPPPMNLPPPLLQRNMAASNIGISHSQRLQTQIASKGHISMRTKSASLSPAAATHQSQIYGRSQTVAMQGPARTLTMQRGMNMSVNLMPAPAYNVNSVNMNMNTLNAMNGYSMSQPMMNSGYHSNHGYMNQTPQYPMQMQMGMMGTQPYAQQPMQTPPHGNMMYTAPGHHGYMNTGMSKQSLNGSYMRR
UniProt Q92794: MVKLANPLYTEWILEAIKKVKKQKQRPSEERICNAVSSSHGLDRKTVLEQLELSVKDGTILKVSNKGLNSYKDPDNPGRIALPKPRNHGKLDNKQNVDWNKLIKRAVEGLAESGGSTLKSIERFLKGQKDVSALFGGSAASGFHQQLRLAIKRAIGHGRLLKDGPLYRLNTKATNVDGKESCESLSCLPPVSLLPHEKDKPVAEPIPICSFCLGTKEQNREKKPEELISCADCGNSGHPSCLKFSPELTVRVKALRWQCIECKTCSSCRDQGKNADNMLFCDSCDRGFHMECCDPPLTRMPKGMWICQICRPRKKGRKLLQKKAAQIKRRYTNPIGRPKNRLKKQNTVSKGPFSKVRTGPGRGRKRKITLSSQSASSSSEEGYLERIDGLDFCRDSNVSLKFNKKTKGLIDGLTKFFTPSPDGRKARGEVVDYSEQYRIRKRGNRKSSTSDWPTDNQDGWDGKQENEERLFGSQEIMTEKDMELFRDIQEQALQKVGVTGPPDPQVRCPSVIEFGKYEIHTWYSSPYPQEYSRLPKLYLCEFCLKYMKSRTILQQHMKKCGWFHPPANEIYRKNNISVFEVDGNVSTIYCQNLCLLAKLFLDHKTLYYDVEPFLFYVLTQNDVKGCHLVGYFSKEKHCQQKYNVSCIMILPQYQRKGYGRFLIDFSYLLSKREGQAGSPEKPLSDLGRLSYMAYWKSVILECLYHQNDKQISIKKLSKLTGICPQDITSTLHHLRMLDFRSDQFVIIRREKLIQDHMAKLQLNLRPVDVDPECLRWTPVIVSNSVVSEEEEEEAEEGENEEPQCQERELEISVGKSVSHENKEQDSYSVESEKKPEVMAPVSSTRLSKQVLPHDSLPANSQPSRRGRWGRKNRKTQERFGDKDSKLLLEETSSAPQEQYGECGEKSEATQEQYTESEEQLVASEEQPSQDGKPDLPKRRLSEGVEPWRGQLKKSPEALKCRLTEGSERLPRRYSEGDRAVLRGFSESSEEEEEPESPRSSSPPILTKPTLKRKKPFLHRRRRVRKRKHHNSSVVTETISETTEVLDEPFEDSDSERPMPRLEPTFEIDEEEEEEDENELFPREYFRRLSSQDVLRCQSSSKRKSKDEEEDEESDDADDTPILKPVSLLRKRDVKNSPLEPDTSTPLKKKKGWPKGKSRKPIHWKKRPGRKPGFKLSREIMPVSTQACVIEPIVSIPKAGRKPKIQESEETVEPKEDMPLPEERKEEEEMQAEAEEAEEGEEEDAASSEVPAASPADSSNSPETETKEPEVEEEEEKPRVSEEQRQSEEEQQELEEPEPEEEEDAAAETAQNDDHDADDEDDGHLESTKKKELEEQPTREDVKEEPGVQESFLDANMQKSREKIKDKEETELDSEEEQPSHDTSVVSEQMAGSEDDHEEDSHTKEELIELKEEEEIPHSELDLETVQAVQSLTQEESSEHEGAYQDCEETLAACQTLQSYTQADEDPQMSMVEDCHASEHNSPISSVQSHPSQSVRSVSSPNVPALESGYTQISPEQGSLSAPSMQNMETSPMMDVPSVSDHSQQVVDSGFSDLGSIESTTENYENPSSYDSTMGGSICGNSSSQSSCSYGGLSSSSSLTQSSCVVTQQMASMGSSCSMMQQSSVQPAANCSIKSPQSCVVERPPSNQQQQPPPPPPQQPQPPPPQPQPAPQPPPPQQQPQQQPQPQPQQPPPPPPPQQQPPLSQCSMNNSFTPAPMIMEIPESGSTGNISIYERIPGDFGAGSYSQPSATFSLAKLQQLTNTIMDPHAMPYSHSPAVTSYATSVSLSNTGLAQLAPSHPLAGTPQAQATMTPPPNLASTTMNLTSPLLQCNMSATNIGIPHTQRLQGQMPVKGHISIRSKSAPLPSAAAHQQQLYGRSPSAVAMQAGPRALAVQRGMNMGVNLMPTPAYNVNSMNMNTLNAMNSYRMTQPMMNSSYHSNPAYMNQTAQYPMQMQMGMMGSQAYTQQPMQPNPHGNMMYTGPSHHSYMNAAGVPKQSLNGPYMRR
UniProt P55201: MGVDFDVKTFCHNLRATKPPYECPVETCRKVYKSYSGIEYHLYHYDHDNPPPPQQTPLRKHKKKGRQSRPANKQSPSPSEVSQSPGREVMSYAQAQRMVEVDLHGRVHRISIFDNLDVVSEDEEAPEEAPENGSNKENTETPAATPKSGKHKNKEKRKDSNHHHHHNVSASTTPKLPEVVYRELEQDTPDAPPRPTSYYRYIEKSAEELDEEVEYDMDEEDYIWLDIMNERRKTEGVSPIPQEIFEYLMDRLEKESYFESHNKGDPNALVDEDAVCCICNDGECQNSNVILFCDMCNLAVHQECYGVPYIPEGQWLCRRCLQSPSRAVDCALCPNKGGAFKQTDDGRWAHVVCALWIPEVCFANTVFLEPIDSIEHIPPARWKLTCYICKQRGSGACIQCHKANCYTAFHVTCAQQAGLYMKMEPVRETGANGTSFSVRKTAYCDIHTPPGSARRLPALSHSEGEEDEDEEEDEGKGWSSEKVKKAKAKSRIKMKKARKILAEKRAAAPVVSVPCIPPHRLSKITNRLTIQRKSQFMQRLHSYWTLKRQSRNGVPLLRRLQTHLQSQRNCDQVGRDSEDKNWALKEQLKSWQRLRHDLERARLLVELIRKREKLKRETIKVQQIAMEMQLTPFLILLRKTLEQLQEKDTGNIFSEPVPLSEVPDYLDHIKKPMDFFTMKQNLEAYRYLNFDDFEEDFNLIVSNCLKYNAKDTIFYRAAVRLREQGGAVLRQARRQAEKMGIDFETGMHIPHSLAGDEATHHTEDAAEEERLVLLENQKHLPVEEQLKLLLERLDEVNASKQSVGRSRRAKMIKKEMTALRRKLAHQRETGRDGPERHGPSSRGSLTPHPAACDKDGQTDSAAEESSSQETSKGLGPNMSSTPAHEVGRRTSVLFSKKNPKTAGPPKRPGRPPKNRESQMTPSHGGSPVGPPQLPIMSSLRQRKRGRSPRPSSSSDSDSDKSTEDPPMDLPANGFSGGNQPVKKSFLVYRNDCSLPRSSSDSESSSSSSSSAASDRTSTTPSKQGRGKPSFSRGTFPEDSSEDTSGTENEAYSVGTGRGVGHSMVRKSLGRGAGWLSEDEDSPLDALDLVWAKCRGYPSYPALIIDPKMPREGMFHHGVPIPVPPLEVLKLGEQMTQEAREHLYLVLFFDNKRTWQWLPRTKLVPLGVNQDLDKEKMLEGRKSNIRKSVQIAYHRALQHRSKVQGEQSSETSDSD

Columns and labels:
[1] = molecular target: 3xFLAG-2xStrep-tagged MORF (full length), expressed from the AAVS1 locus in K562 cells (human) (UniProt Q8WYB5); test: affinity purification with mass spectrometry; tandem affinity purification (anti-FLAG agarose, 3xFLAG peptide elution, then Strep-Tactin, biotin elution) of 3xFLAG-2xStrep MORF or MOZ from K562 nuclear extracts; silver staining and Orbitrap mass spectrometry
[2] = molecular target: 3xFLAG-2xStrep-tagged MOZ, expressed from the AAVS1 locus in K562 cells (human) (UniProt Q92794); test: as above

binding [1]: binds
binding [2]: binds
Substance: BRPF1 (endogenous, K562) (from UniProt P55201 1-1214)
